From paper PMC10163288
The other results are listed elsewhere or left out.

B1: il10ra_site1_normal_mot_HHH_b2_03183_af2_000000055_0001_40_56_H_._HHH_b1_07720_af2_0001_0000100002_0000001_0 (protein)
chain: SSSSDREELLRAVLRLLEQALEIGDEHAFRRLLEAAKRAAELNNDEEILQLLEELEKEVNSSSSS
B2: il10ra_site1_sap_11_mot_HHH_b2_05111_af2_000000002_0001_42_56_H_._HHH_b1_02798_af2_0001_0000600018_0000001_0_0001 (protein)
chain: SSSSDTQEIYELLEELVRALHNGDEELFEEIFERVERLIEEAGSRNLRMVLEFLERLFRSLSSSS
B3: il10ra_site1_sap_16_mot_HHH_b2_04680_000000215_0001_1_16_H_._HHH_b1_08024_0001_0000300027_0000001_0_0001_af2pred_0001 (protein)
chain: SSSSSSDLSQRIVELIREAMQIEDPEEAEEVLEEAQELAEEAGSPLFRRAVEFALRRLSSSSSSS
B4: il10ra_site1_normal_mot_HHH_b1_00999_000000080_0001_41_55_H_._HHH_b2_05299_af2_0001_0000700032_0000001_0 (protein)
chain: SSSSSDEEKRERAEELIEEAEEIEDPEELIRVLTEALRLLYEVNDKELLQELWELIKRLGSSSSS
B5: il10ra_site1_sap_27_mot_HHH_b1_01011_000000096_0001_1_19_H_._HHH_b2_07786_0001_0000100003_0000001_0_0001_af2pred_0001 (protein)
chain: SSSSNDQELAELALMFVRFLEEEGDEEALRRMLKAARQLAKQANDEEILRELEEILEELESSSSS
B6: il10ra_site1_normal_mot_HHH_b1_00915_000000117_0001_1_19_H_._HHH_b2_00147_af2_0001_0000100003_0000002_1 (protein)
chain: SSSSSTLEFAVRFALRVVEELLELGDPEKARAILEALRRHLEEAGDEELLRIVEELLEEISSSSS
B7: il10ra_site1_normal_mot_HHH_b1_02397_af2_000000085_0001_39_57_H_._HHH_b2_07136_af2_0001_0000100007_0000001_0_af2pred_0001 (protein)
chain: SSSSDEEEEEVEKLIEELKRAIENNDPELLARLARRALKLALELGDEELLQEIRKLFRRALSSSS
B8: il10ra_site1_sap_15_mot_HHH_b1_00456_000000263_0001_1_17_H_._HHH_b2_03029_0001_0000100004_0000002_0_0001 (protein)
chain: DEEEEELAELLKEGDPEAERLIEELIAELMGFPPEQARKVLELQERQIGDPRQAVLAALRAARMV
B9: il10ra_site1_normal_mot_HHH_b2_03220_af2_000000223_0001_23_40_H_._HHH_b1_06979_af2_0001_0000200009_0000001_0 (protein)
chain: SSSSSERERVWRLLREILELWANGNPEEAEELLEEAQRLVEEANSELFKFAVEAVERAVRLSSSS
B10: il10ra_site1_normal_mot_8756ee2cf497b5429c717dfc0c0bcfd6_0001_000000186_0001_1_13_H_._HHH_b1_01984_af2_0001_0000400009_0000002_0_af2pred_0001 (protein)
chain: SSSSSDLEELLRLLREIAKLLHEGDEEEAEKLIERAEEIAEELNDEVARAILRFLQERLNSSSSS
B11: il10ra_site1_sap_15_mot_HHH_b1_07185_000000289_0001_1_15_H_._649a1d3161f016c9e54e9aa878614165_0001_0001_0000200009_0000001_0_0001 (protein)
chain: SSSSSEVEQEVREILEEAEELAKEGDPEKVSRVLLEALKVAWRHSDKEALQLVWEVVHRLGSSSS
B12: il10ra_site1_normal_mot_HHH_b2_06786_000000018_0001_41_57_H_._HHH_b1_06130_0001_0000700040_0000002_0 (protein)
chain: SSSSSSSEEEEEVEELVEEVKEDPRLAQRAVRRVYKLADETNDPRLLALLWRLFKELISSSSSSS
B13: il10ra_site1_normal_mot_HHH_b2_04681_000000155_0001_43_57_H_._HHH_b2_07082_0001_0000100001_0000001_0 (protein)
chain: SSSSDVTERFRELVEKLSQLVREGDDEEARELLKEIEELAEEANSHILREQAEFLRRIVEQSSSS
B14: il10ra_site1_sap_21_mot_HHH_b1_01693_000000146_0001_1_17_H_._HHH_b2_04774_0001_0000200019_0000002_0_0001_af2pred_0001 (protein)
chain: SSSSDDIERALERLLEALEHAVRLGDEEKIRLSTKDIKASAKDANDPEVEERAEELLREFGSSSS
B15: il10ra_site1_sap_22_mot_HHH_b2_03631_af2_000000003_0001_42_56_H_._HHH_b1_03142_0001_0000100002_0000002_0_0001 (protein)
chain: SLEEELEELLRELGVPPERIRLLQLAFRVQRRQGSPPEDVLRALLYLLHAAGSPAREAVEELLRR
B16: il10ra_site1_sap_17_mot_b26a303360aa2756ef5b79665ce52f45_0001_000000179_0001_1_11_H_._HHH_b1_05676_af2_0001_0000100003_0000001_0_0001_af2pred_0001 (protein)
chain: SSSSDADERAVELLIKAVKQLLEKGNEELAKLTLHIAELAAKATNNEELEKELEKLRELLSSSSS
B17: il10ra_site1_normal_mot_65b8060e20531850bca9f2e11f97d954_0001_af2_000000137_0001_17_31_H_._HHH_b1_03310_0001_0000200016_0000001_1_af2pred_0001 (protein)
chain: SSSSDEEERRVSELFVKAAQLLDEGNPEEAKKLLEEMEELAEEGNNEKLRLTVRFLKALIESSSS
B18: il10ra_site1_normal_mot_HHH_b2_00984_000000042_0001_1_20_H_._HHH_b1_00874_af2_0001_0000200003_0000001_0 (protein)
chain: SSSSSDEEEERAEELLEQAKRIPDPREAIELLAEAVQLALRLGDEELLQEIWEIIKKLESSSSSS
B19: il10ra_site1_sap_28_mot_HHH_b1_07527_000000076_0001_1_15_H_._HHH_b1_01190_0001_0000500043_0000001_0_0001_af2pred_0001 (protein)
chain: SSSSSKEDREIVELLRRIIELLAEGDEEEARELLEEAEELARENNNLLAEVIIRFLQKHVESSSS
B20: il10ra_site1_sap_22_mot_HHH_b2_00033_000000036_0001_41_54_H_._HHH_b1_03321_0001_0000100007_0000001_0_0001 (protein)
chain: SSSSSEEEEELRELLERIEEAVRRGDPELFAELVQELLHLAYQLRDEEVLQELYRLFKKAASSSS
B21: il10ra_site1_normal_mot_HHH_b1_05757_000000171_0001_42_57_H_._20bd334181f53d5e88893876e50d2750_0001_0001_0000100001_0000001_0_af2pred_0001 (protein)
chain: DPRVVEVLREVIEKFADDPEAQRLVREASRLLNNGNPEKALELLLELAEELGDPELERKVEELLK
B22: il10ra_site1_normal_mot_HHH_b2_06979_000000158_0001_42_57_H_._HHH_b2_02744_af2_0001_0000100001_0000001_0_af2pred_0001 (protein)
chain: SSSSNEVSRRLLELIRRAAELRDRGDPEEAEEVLEEAKELAEENNDELFLIVVEFALRSLSSSSS
B23: il10ra_site1_sap_20_mot_HHH_b1_02397_af2_000000085_0001_39_57_H_._HHH_b2_04674_0001_0000100007_0000001_0_0001 (protein)
chain: SSSSSSDREEEIEELIEEAKQIPDPREAAEVLARAVRLALENSNEELLQEIWELVLRLSSSSSSS
B24: il10ra_site1_normal_mot_HHH_b2_01310_000000089_0001_41_55_H_._HHH_b2_02502_af2_0002_0000400031_0000001_0 (protein)
chain: SSSSDELEKELERLIEEIEELIEEGDPERAVRLLQRLVQYAFRAGDEEALRRAIELAELLGSSSS
B25: il10ra_site1_normal_mot_HHH_b1_02062_000000185_0001_1_20_H_._HHH_b2_01039_af2_0001_0000200011_0000001_0_af2pred_dldesign_0_af2pred (protein)
chain: SSSSSSDVQRIVDLIREALELYAEGKLEEAKKVAEEALELAKKLNNPIFIETAEYVLEKISSSSS
B26: il10ra_site1_normal_mot_HHH_b2_00033_000000036_0001_41_54_H_._HHH_b2_05675_0001_0000500028_0000002_0 (protein)
chain: SSSSSEVEERVEELLEQLEEARREGDPHKFARIAKELVRLVEQNRNPELFQEVWRLYKELSSSSS
B27: il10ra_site1_normal_mot_HHH_b2_06977_000000171_0001_1_19_H_._HHH_b1_04617_0001_0000200032_0000001_0 (protein)
chain: SSSSDNQEALRLVLEAFRAALRGNPEEARELLREAEELAERAGNEQLLRVIRELLKARENGSSSS
B28: il10ra_site1_sap_23_mot_HHH_b2_04001_000000102_0001_19_36_H_._HHH_b1_08465_af2_0001_0000500036_0000001_0_0001 (protein)
chain: SSSSSEYVEIAERFARSAHENGDRLILEHMLEMARMLAERLNDPELEELVEEIEELLERLRSSSS
B29: il10ra_site1_normal_mot_8756ee2cf497b5429c717dfc0c0bcfd6_0001_000000186_0001_1_13_H_._HHH_b1_02143_af2_0001_0000200006_0000001_0_af2pred_dldesign_0_af2pred (protein)
chain: SSSSSDKISRLVELIRKLAELVSNKDKENFKKLYKEALKLAKELKSPTFLHTLDYLKSKIESSSS
B30: il10ra_site1_normal_mot_HHH_b2_08186_000000021_0001_43_56_H_._HHH_b1_08707_0001_0000300027_0000001_0 (protein)
chain: SSSSSDIEELLREAEELAEEGNPEEALRLLQEALRLIYENNDEELLRELWEVLRKVAELSSSSSS
B31: il10ra_site1_sap_21_mot_HHH_b2_03262_000000140_0001_43_57_H_._HHH_b2_04959_af2_0001_0000600026_0000001_1_0001 (protein)
chain: SSSSDDYEEVKRLLEEAAKLLRNGDPEEAERLLEELEEELREKGNFAALFSVRHLLEVVRNSSSS
B32: il10ra_site1_normal_mot_5aed09890fd46f02a60ca541bcb2e05a_0001_1_000000092_0001_15_31_H_._01923d483164837742cf829bee572cc5_0001_0001_0000400017_0000001_0 (protein)
chain: DEEEVKRLIEEALGVPPEVVELAVRQLAEQARIPPEEALELLIRAFLLANPHNELLREALELLRK
B33: il10ra_site1_sap_21_mot_HHH_b1_05126_000000010_0001_38_52_H_._HHH_b2_05985_af2_0001_0000600013_0000001_1_0001 (protein)
chain: SSSSDLEEEIEKLLEELEELIKEGDRERITELALKIVKLIYEAKNAELLRRLWELVKAFYSSSSS
B34: il10ra_site1_sap_25_mot_HHH_b2_00894_000000003_0001_1_20_H_._HHH_b2_00894_0001_0000300026_0000002_0_0001 (protein)
chain: SSSSSDEAEEEVRELLEEAEKIPDAEEAYKLLKEAIEIAIENNDPEAERLVHEAIRKWLHSSSSS
B35: il10ra_site1_sap_28_mot_HHH_b1_01011_000000096_0001_1_19_H_._HHH_b1_05983_0001_0000100002_0000003_0_0001_af2pred_0001 (protein)
chain: SSSSSDEEVEERVEELLERAKKIDDPNRRAYLLIEAFALANKLNDEELKRKVEEVAKKLSSSSSS
B36: il10ra_site1_sap_22_mot_HHH_b1_01011_000000096_0001_1_19_H_._HHH_b1_01309_0001_0000200002_0000002_0_0001 (protein)
chain: SSSSSSTDLAHLLLRLVEAVYNKDEELIRELLEELRELLEEEGDPYIRIALHFAEAALSSSSSSS
B37: il10ra_site1_sap_11_mot_HHH_b2_02315_000000136_0001_19_35_H_._HHH_b2_01011_0001_0000100008_0000001_0_0001 (protein)
chain: SSSSDEATREIYELLREAVELDNDGNPEEAEKVLEEARKIAEEGNDRVLAHTIRRMEELIGSSSS

Each binder was assayed against il10ra, Q13651 (assay: yeast display titration).

Apparent Kd, inactive:
B1 no binding seen
B2 no binding seen
B3 no binding seen
B4 no binding seen
B5 no binding seen
B6 no binding seen
B7 no binding seen
B8 no binding seen
B9 no binding seen
B10 no binding seen
B11 no binding seen
B12 no binding seen
B13 no binding seen
B14 no binding seen
B15 no binding seen
B16 no binding seen
B17 no binding seen
B18 no binding seen
B19 no binding seen
B20 no binding seen
B21 no binding seen
B22 no binding seen
B23 no binding seen
B24 no binding seen
B25 no binding seen
B26 no binding seen
B27 no binding seen
B28 no binding seen
B29 no binding seen
B30 no binding seen
B31 no binding seen
B32 no binding seen
B33 no binding seen
B34 no binding seen
B35 no binding seen
B36 no binding seen
B37 no binding seen

Looked up one by one from the list above:
Apparent Kd, inactive:
B25 no binding seen
B17 no binding seen
B12 no binding seen
